Publication PMC7522982, “PKIS deep dive yields a chemical starting point for dark kinases and a cell active BRSK2 inhibitor” (Scientific Reports, 2020)
For some assays here: The index is printed as in the source, without its formula.

Tests used:
[1] = test system: 305–311 kinases; set-up: method as in PMID 24651269; settings: 305–311 kinases at 1 μM; mobility shift assays and ELISA; cited from earlier work
[2] = test system: 403 wild type human kinases; test: DiscoverX scanMAX competition binding assay, whole panel

Row | SMILES | S10(1 μM) score [1] | further results
1 | Cc1nc(Nc2ncc(C(=O)Nc3c(C)cccc3Cl)s2)cc(N2CCN(CCO)CC2)n1 [dasatinib] | > 0.15 | –
2 | Cc1ccc(C(=O)Nc2ccc(CN3CCN(C)CC3)c(C(F)(F)F)c2)cc1C#Cc1cnc2cccnn12 [ponatinib] | > 0.15 | –
3 | CCN(CC)CCNC(=O)c1c(C)[nH]c(/C=C2\C(=O)Nc3ccc(F)cc32)c1C [sunitinib] | > 0.15 | –
4 | COc1ccc2[nH]c3c4[nH]c5ccc(OC)cc5c4c4c(c3c2c1)C(=O)NC4=O [GW296115] | – | number of kinases inhibited > 90% at 1 μM [2]: 25; number of kinases with ≥ 75% inhibition at 1 μM [2]: 41; selectivity index (S10) at 1 μM [2]: 0.062
5 | COc1cc(Nc2c(C#N)cnc3cc(OCCCN4CCN(C)CC4)c(OC)cc23)c(Cl)cc1Cl [Bosutinib] | > 0.15 | –
6 | COc1cc2nccc(Oc3ccc(NC(=O)C4(C(=O)Nc5ccc(F)cc5)CC4)cc3)c2cc1OC [cabozantinib] | > 0.15 | –
